# Source: PubChem BioAssay AID504774 (Drosophila RNAi Screening Center, 2011)
# Purpose: 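Knock-downs that shift viability of MMS-exposed cells relative to untreated ones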 (primary screen)
# Cells: Drosophila Kc167 cells
# Reagent: long dsRNA against Drosophila genes, about 0.25 µg dsRNA per well
# Time to read-out: about 6 days: 3 days knock-down, then 3 days with or without MMS
# Treatment: methyl methanesulphonate 0.004% (w/v) for 3 days after knock-down
# Read-out: 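Viability in wells given MMS, read as ATP luminescence, normalised by quantiles plate by plate and averaged across replicates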
# Direction: mean viability with MMS and viability with MMS: higher = more surviving cells after MMS
# In all, the deposit lists about 23,000 reagents; this is an unselected part of those that have a named target and a result. 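Values are quantile-normalised luminescence on an arbitrary scale; higher means more cells surviving MMS.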 A plus sign joins genes that one reagent is predicted to hit.
target gene,dsRNA,mean viability with MMS,"viability with MMS, replicate 1","viability with MMS, replicate 2"
tkv + CR14033 + tRNA:Asp-GTC-2-1 + 1 more,DRSC00861,3.32e6,3.71e6,3.83e6
CG17770 + Acam,DRSC14110,3.60e6,4.03e6,4.13e6
CG17770 + Acam,DRSC15264,3.58e6,4.01e6,4.10e6
CheB74a,DRSC09503,3.48e6,3.89e6,4.01e6
IPIP,DRSC02164,3.89e6,4.53e6,4.37e6
MFS3,DRSC00664,3.64e6,4.18e6,4.12e6
Nmt,DRSC11236,3.46e6,3.70e6,4.14e6
CG33552,DRSC01551,3.49e6,3.92e6,4.00e6
tous,DRSC04464,3.73e6,4.31e6,4.42e6
CG13047,DRSC09928,3.64e6,4.01e6,4.22e6
Lgr1,DRSC16675,3.53e6,4.11e6,3.90e6
CG6094,DRSC02927,3.53e6,3.85e6,4.16e6
CG6094,DRSC22705,3.57e6,4.07e6,4.00e6
boly,DRSC21629,3.68e6,4.16e6,4.13e6
Spx,DRSC18720,2.87e6,3.40e6,3.49e6
CG4367,DRSC15568,3.55e6,4.02e6,4.03e6
Not10,DRSC14129,3.58e6,4.04e6,4.12e6
Gr98d,DRSC14571,3.54e6,4.05e6,3.95e6
CG3358,DRSC04992,3.65e6,4.10e6,4.14e6
CG17207,DRSC15198,3.50e6,4.03e6,3.93e6
norpA,DRSC18806,3.31e6,3.81e6,3.75e6
Dup99B,DRSC22877,3.39e6,3.87e6,3.92e6
CG14971,DRSC08430,3.54e6,4.00e6,4.04e6
Arc1,DRSC06159,3.37e6,3.78e6,3.82e6
CG5909,DRSC15914,3.58e6,4.11e6,4.01e6
CG31207,DRSC21886,3.64e6,4.13e6,4.05e6
Adar,DRSC17725,3.57e6,4.21e6,3.88e6
grim,DRSC11352,3.15e6,3.58e6,3.66e6
grim,DRSC23169,3.31e6,3.53e6,4.00e6
TwdlC,DRSC14749,3.53e6,3.91e6,4.07e6
CG31624,DRSC02617,3.59e6,4.34e6,4.21e6
CG12020,DRSC08226,3.43e6,3.91e6,3.88e6
bab2,DRSC08150,3.53e6,4.02e6,3.98e6
bab2,DRSC08380,3.23e6,3.64e6,3.70e6
Zip48C,DRSC06314,3.68e6,4.10e6,4.25e6
CG12209,DRSC06119,3.48e6,4.00e6,3.91e6
CG5961,DRSC15927,3.44e6,3.81e6,3.96e6
CG32192,DRSC21760,3.32e6,3.78e6,3.88e6
Ski6,DRSC02491,3.54e6,3.97e6,4.06e6
CG1737,DRSC19771,1.80e6,4.07e6,3.89e6
Nup58,DRSC16235,3.26e6,3.72e6,3.73e6
CG44836,DRSC09915,3.60e6,4.09e6,4.08e6
Odc2,DRSC07483,3.57e6,4.10e6,3.98e6
Gp93,DRSC15827,3.63e6,4.18e6,4.04e6
Tig,DRSC03456,3.29e6,3.49e6,3.84e6
Trf4-2,DRSC15237,3.70e6,4.23e6,4.15e6
CG6230,DRSC01989,3.52e6,4.08e6,3.91e6
CG5056,DRSC02808,3.64e6,4.00e6,4.26e6
Srg2 + CG42826,DRSC10681,3.56e6,4.08e6,4.00e6
Srg2 + CG42826,DRSC10682,3.59e6,3.94e6,4.17e6
CG9173,DRSC08635,3.65e6,4.07e6,4.15e6
alpha-Est9,DRSC12621,3.58e6,4.09e6,4.04e6
ZnT41F,DRSC04850,3.44e6,3.98e6,3.98e6
CG3748,DRSC02716,3.48e6,3.69e6,4.21e6
CG13036 (retired record),DRSC09916,3.77e6,4.22e6,4.25e6
CG14341,DRSC00371,3.57e6,4.06e6,4.06e6
CG13248,DRSC11696,3.60e6,4.01e6,4.13e6
Klp68D,DRSC11206,3.47e6,3.93e6,3.94e6
CG33124,DRSC00298,3.51e6,3.95e6,4.02e6
CG7997,DRSC07052,3.46e6,3.95e6,3.89e6
CG1537,DRSC19662,3.79e6,4.32e6,4.20e6
Dark,DRSC05922,3.49e6,3.95e6,3.97e6
CG10505,DRSC04075,3.65e6,4.14e6,4.13e6
Nepl16,DRSC14650,3.58e6,3.99e6,4.13e6
RpL7,DRSC03417,2.87e6,3.49e6,3.48e6
msi,DRSC17003,2.98e6,3.61e6,3.60e6
PolZ1,DRSC06800,3.46e6,4.01e6,3.81e6
TORIP,DRSC10104,3.60e6,4.10e6,4.07e6

Reprinted from the listing for reference:
target gene,dsRNA,mean viability with MMS,"viability with MMS, replicate 1","viability with MMS, replicate 2"
CG4367,DRSC15568,3.55e6,4.02e6,4.03e6
Not10,DRSC14129,3.58e6,4.04e6,4.12e6
Gr98d,DRSC14571,3.54e6,4.05e6,3.95e6
CG3358,DRSC04992,3.65e6,4.10e6,4.14e6
CG17207,DRSC15198,3.50e6,4.03e6,3.93e6
norpA,DRSC18806,3.31e6,3.81e6,3.75e6
Dup99B,DRSC22877,3.39e6,3.87e6,3.92e6
CG14971,DRSC08430,3.54e6,4.00e6,4.04e6
Arc1,DRSC06159,3.37e6,3.78e6,3.82e6
CG5909,DRSC15914,3.58e6,4.11e6,4.01e6
CG31207,DRSC21886,3.64e6,4.13e6,4.05e6
